The target in assay [1] is helicase-CTD of RIG-I (human). Description: co-IP; HEK293 cells transiently transfected with the indicated plasmids; NP-40 lysis buffer (20 mM Tris-HCl pH 7.4, 150 mM NaCl, 1 mM EDTA, 1% NP-40); immunoprecipitation and immunoblotting. In general terms: A western blot detects proteins with antibodies after separation by electrophoresis.
Assay [2] deals with helicase-CTD of MDA5 (human). Described as above.

Consider 1 molecule from article PMC6703689, “The heterogeneous nuclear ribonucleoprotein hnRNPM inhibits RNA virus-triggered innate immunity by antagonizing RNA sensing of RIG-I-like receptors” (PLoS Pathogens, 2019).

No constants are given. Whether binding was seen depends on the method and setting. Binding seen in cells or lysates may run through a third protein. A result given as binding can be weak or reduced; the word gives no strength. Sequences can lack the tags named with a protein.

B1: recombinant hnRNPM (pGEX6p-1-GST-hnRNPM) (natural protein, human, UniProt P52272 1-730, looked up)
chain: MAAGVEAAAEVAATEIKMEEESGAPGVPSGNGAPGPKGEGERPAQNEKRKEKNIKRGGNRFEPYANPTKRYRAFITNIPFDVKWQSLKDLVKEKVGEVTYVELLMDAEGKSRGCAVVEFKMEESMKKAAEVLNKHSLSGRPLKVKEDPDGEHARRAMQKVMATTGGMGMGPGGPGMITIPPSILNNPNIPNEIIHALQAGRLGSTVFVANLDYKVGWKKLKEVFSMAGVVVRADILEDKDGKSRGIGTVTFEQSIEAVQAISMFNGQLLFDRPMHVKMDERALPKGDFFPPERPQQLPHGLGGIGMGLGPGGQPIDANHLNKGIGMGNIGPAGMGMEGIGFGINKMGGMEGPFGGGMENMGRFGSGMNMGRINEILSNALKRGEIIAKQGGGGGGGSVPGIERMGPGIDRLGGAGMERMGAGLGHGMDRVGSEIERMGLVMDRMGSVERMGSGIERMGPLGLDHMASSIERMGQTMERIGSGVERMGAGMGFGLERMAAPIDRVGQTIERMGSGVERMGPAIERMGLSMERMVPAGMGAGLERMGPVMDRMATGLERMGANNLERMGLERMGANSLERMGLERMGANSLERMGPAMGPALGAGIERMGLAMGGGGGASFDRAIEMERGNFGGSFAGSFGGAGGHAPGVARKACQIFVRNLPFDFTWKMLKDKFNECGHVLYADIKMENGKSKGCGVVKFESPEVAERACRMMNGMKLSGREIDVRIDRNA
notes: hnRNPM, human; cloned in pGEX-6p-1; No cleavage of GST is told; the MST methods call the same preparation GST-hnRNPM, so the tag was probably still on the protein in the pull-down; source: E. coli BL21, purified (GST resins, eluted with reduced glutathione)
In the case of B1, the binding result in assay [1] and in assay [2] was “binds” each time.
